To fix the notation:
B1: collybistin (protein, UniProt Q3UTH8 1-516)
chain: MYDLITGDSIVSAEAVWDHVTMANRELAFKAGDVIKVLDASNKDWWWGQIDDEEGWFPASFVRLWVNQEDGVEEGPSDVQNGHLDPNSDCLCLGRPLQNRDQMRANVINEIMSTERHYIKHLKDICEGYLKQCRKRRDMFSDEQLKVIFGNIEDIYRFQMGFVRDLEKQYNNDDPHLSEIGPCFLEHQDGFWIYSEYCNNHLDACMELSKLMKDSRYQHFFEACRLLQQMIDIAIDGFLLTPVQKICKYPLQLAELLKYTAQDHSDYRYVAAALAVMRNVTQQINERKRRLENIDKIAQWQASVLDWEGEDILDRSSELIYTGEMAWIYQPYGRNQQRVFFLFDHQMVLCKKDLIRRDILYYKGRIDMDKYEVIDIEDGRDDDFNVSMKNAFKLHNKETEEVHLFFAKKLEEKIRWLRAFREERKMVQEDEKIGFEISENQKRQAAMTVRKASKQKGVNSARSVPPSYPPPQDPLNQGQYLVPDGIAQSQVFEFTEPKRSQSPFWQNFSRLTPFKK

Sequences of proteins named here, by UniProt entry; tags and fusion partners are left off. Residues count along the entry.
UniProt Q69ZK9, residues 15-836: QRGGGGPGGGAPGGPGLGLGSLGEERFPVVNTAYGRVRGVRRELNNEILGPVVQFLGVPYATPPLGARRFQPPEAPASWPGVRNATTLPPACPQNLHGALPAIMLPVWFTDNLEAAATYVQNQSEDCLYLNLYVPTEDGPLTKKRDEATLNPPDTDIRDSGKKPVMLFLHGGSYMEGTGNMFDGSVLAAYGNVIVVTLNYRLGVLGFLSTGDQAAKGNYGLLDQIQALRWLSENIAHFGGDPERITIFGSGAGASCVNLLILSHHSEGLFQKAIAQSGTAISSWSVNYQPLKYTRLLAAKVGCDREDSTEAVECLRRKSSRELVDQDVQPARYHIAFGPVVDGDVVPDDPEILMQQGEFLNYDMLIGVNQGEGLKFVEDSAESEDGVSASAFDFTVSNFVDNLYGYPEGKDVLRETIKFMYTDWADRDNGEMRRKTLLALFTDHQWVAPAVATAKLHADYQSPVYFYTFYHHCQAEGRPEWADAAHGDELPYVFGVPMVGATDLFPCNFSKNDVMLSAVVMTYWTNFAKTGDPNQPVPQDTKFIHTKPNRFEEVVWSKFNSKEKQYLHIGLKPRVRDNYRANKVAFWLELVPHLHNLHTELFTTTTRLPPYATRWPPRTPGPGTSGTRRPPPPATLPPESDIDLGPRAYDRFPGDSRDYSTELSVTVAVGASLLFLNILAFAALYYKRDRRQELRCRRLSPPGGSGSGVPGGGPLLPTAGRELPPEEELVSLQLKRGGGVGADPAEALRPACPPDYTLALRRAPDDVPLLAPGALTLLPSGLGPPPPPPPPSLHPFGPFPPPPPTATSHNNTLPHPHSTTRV
UniProt Q61327: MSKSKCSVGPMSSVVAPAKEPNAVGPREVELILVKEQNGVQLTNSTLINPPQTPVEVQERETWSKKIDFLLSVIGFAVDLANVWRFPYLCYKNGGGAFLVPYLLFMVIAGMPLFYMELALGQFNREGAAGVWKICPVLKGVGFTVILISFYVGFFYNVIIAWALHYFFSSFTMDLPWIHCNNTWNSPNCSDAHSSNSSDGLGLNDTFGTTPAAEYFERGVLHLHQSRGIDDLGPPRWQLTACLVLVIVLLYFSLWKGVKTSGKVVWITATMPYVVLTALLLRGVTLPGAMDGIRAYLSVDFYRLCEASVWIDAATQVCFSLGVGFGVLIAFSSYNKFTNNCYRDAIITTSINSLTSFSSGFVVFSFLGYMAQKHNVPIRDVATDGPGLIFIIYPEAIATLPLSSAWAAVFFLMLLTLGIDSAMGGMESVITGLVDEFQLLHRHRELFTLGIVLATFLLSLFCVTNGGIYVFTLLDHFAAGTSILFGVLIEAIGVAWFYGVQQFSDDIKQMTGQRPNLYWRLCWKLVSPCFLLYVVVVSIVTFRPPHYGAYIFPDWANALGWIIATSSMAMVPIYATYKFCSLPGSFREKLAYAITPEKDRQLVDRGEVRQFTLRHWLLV
UniProt O55192: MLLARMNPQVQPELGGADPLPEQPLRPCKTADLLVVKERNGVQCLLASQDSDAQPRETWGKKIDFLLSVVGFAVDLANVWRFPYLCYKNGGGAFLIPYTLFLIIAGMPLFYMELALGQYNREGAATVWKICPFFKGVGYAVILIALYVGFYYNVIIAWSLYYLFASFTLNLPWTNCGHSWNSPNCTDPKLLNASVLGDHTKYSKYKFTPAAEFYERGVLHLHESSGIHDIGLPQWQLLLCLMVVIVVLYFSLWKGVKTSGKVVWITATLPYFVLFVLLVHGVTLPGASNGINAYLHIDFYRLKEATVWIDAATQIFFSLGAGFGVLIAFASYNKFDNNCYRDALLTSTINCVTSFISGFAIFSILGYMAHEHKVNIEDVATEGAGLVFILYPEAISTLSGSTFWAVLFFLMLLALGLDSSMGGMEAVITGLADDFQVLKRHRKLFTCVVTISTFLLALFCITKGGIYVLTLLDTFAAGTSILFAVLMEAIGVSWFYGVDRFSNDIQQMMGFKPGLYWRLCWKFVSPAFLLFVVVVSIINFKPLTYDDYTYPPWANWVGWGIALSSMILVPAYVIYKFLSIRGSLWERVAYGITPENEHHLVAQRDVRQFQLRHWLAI

Results are given in words; binding and its absence hold for the method and conditions named. In cells and extracts the contact can be indirect. Some entries that bind do so weakly or less than the wild type.

For the test, the target named is neuroligin 2 (mouse (endogenous in mouse brain)) (UniProt Q69ZK9). The experiment in a line: co-IP; mouse midbrain extract (50 mM Tris, 150 mM KCl, 1 mM DTT, 1 mM EDTA, 0.5% dodecyl maltoside, pH 7.4); goat anti-NLGN2 on protein G Dynabeads, 4°C overnight; NLGN2 null mice as negative control; Western blot.
“dopamine transporter (from UniProt Q61327 1-619)”: the binding result was “no binding”.

As for “norepinephrine transporter (from UniProt O55192 1-617)”, the binding entry was “no binding”.

B1: the binding result is recorded as “binds”.

The record behind these values is article PMC4707279.
